The results in this text go back to article PMC7819943, “Rice protein-binding microarrays: a tool to detect cis-acting elements near promoter regions in rice”.

By UniProt entry, the sequences of proteins in these tests, tags left out.
UniProt Q0JBA9, entry or part of it: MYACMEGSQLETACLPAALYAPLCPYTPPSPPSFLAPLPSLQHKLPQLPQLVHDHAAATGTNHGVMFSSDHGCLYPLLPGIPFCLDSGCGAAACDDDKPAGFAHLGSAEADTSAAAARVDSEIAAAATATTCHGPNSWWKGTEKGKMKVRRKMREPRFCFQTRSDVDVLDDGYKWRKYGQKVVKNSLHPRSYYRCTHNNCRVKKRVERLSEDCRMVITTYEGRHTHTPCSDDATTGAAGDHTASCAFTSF

The other results are listed elsewhere or left out.

For the assay, the target named is OsWRKY34 (Oryza sativa, UniProt Q0JBA9 1-250). The assay can be described thus: protein-binding microarray (RPBM); PBS, 2% BSA, 51.3 ng/ul salmon testes DNA, 50 uM zinc acetate, 200 nM TF, 25 C, 1 h; high values mean tight binding. To be noted: protein: recombinant; tags: N-terminal polyhistidine and DsRed monomer fusion (pET32a); label: CyDye5-dUTP incorporated in the synthesized complementary strand; 3' TTTTT single-stranded linker to array surface; dsDNA, one strand shown. In outline:
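The binding signal is fluorescence intensity per array feature (arbitrary units). Readings came from an Axon 4000B scanner after a washed, 2% BSA-blocked, double-stranded custom Agilent array had been incubated for 1 h at 25 °C with 200 nM protein and 50 µM zinc acetate. The protein was a Ni–NTA-purified transcription factor fused N-terminally to polyhistidine and DsRed, expressed in E. coli BL21-CodonPlus.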
As for “TGCTTGCTTGCTTGGTTTGATTGGTGGAGGTGGGAGGAGTCGGAGTCACCTAGTGCAG”, the binding signal is 8520 fluorescence intensity (a.u.). In the case of “CTGACGGACACTACTCTACTCCCTCCGCTCGCCGGAGCTACGGAGTCACCTAGTGCAG” it was 9050 fluorescence intensity (a.u.).

Regarding “TATGCCTAATCCTATTTCGCCCTTTTGTATGAGATTGAGACGGAGTCACCTAGTGCAG”, the binding signal was 9440 fluorescence intensity (a.u.).

On to “GTAGTAGTAGGGGAAATTGTTTTCATCCCTTAAGATATATCGGAGTCACCTAGTGCAG”, for which the binding signal is 8470 fluorescence intensity (a.u.).

“GCTCCCGTGCCGCCACCGATTCCTCCAACAACGCAAAGCTCGGAGTCACCTAGTGCAG”: the binding signal was 8850 fluorescence intensity (a.u.).

“AGTAGGTTGTTGGTTTTGTACCTTTGGGCTCTTTGCCTTTCGGAGTCACCTAGTGCAG”: the binding signal is 10900 fluorescence intensity (a.u.). In the case of “ACTCCGCCACCTCCTGCCACTGACGCTCCGGTGCAGCAGCCGGAGTCACCTAGTGCAG” it was 8290 fluorescence intensity (a.u.). In the case of “AGATAATCCATTGTTCTAACTGTTCTTTTGGTCTCTTTCACGGAGTCACCTAGTGCAG” it was 8180 fluorescence intensity (a.u.); in that of “CCTCAGCATTCATCTTTGACCCTTAGGACTTATTATCCCTCGGAGTCACCTAGTGCAG”, 10500 fluorescence intensity (a.u.); in that of “AAACCAAACTACGCCCGTTGGCTGTCGTACTCTTTCGTAACGGAGTCACCTAGTGCAG”, 8360 fluorescence intensity (a.u.). As to “TGAGCCCCTGATGCGCCCCATACTGCCGTCGCCGTCGCCCCGGAGTCACCTAGTGCAG”, the binding signal is 8720 fluorescence intensity (a.u.). For “CGCCATCCCCACCGCCGGCCTCGCCCTGTCGCTGCTGCTCCGGAGTCACCTAGTGCAG”, the binding signal was 10400 fluorescence intensity (a.u.).

“ATTATGTTGTAAAAAATCTACTAGTTTTATGTCTATCTATCGGAGTCACCTAGTGCAG”: the binding signal is 9130 fluorescence intensity (a.u.). The figure for “AAATTGAATCCATGCATGTTTCTTTCAATTTCATCTTAAACGGAGTCACCTAGTGCAG” is 9100 fluorescence intensity (a.u.); for “CACATAAGCAAAGTGAGTAGTGGTCTTGGTTTGGCTTTTTCGGAGTCACCTAGTGCAG” it is 8880 fluorescence intensity (a.u.); for “TCTCCCGACACAGTGTCTCTCACTAATTCCATTTCGCCGTCGGAGTCACCTAGTGCAG” it is 10500 fluorescence intensity (a.u.). In the case of “TGTGTGTTGTCTTGGAGCGCTTGTCGACGTGACGGGAATGCGGAGTCACCTAGTGCAG” it was 9210 fluorescence intensity (a.u.); in that of “ATATATACTGCCATGAGACCTATTTGCATGGCTTTGACCACGGAGTCACCTAGTGCAG”, 10100 fluorescence intensity (a.u.). In the case of “CTAGTGGGGTGGTTTTTTGAAATTTTGACCAAATCATCCCCGGAGTCACCTAGTGCAG” it was 8980 fluorescence intensity (a.u.). Consider “ATCGCAGCTATCTCACTCGTTTCGTACAACAGCCAAAAAGCGGAGTCACCTAGTGCAG”, for which the binding signal is 10200 fluorescence intensity (a.u.). For “CAATAGTCACAAAGCTGCAAGAACTCCACGTCTCGCATCACGGAGTCACCTAGTGCAG”, the binding signal is 8340 fluorescence intensity (a.u.). With “GATTGGATTAGGGGATTGGTTGCATTTGTTCTTGATTTTACGGAGTCACCTAGTGCAG”, the binding signal is 15600 fluorescence intensity (a.u.).

Turning to “GCCGAGGGCGCCGCCGGCGTCGTCCGAGCTGTGCCGCGCGCGGAGTCACCTAGTGCAG”, the binding signal was 8640 fluorescence intensity (a.u.). Take “CGTATTCTTTTTTTGCAATTCCATGGCCTATGCAACTTAACGGAGTCACCTAGTGCAG”: the binding signal is 11200 fluorescence intensity (a.u.).

Take “TCGTTCTCGTTGTCTCCTCCGCTCCTTGCGCCGCCGCCAACGGAGTCACCTAGTGCAG”: the binding signal was 13900 fluorescence intensity (a.u.). In the case of “GCCGCAAGATGGTGACCACTTCCACAGAGATTTTCGTTTGCGGAGTCACCTAGTGCAG” it was 8800 fluorescence intensity (a.u.).

Turning to “CAATTGCTCCTATGCTTGTGCTTCAAAGGCCATCTTTTTACGGAGTCACCTAGTGCAG”, the binding signal was 8420 fluorescence intensity (a.u.). In the case of “TATGATTAATACTTTATGCGTGACTTATCTTTTTAATTTTCGGAGTCACCTAGTGCAG” it was 8250 fluorescence intensity (a.u.); in that of “ACGTACCTTCTCCATCATCCGACGTTCTGCTACGTGAATTCGGAGTCACCTAGTGCAG”, 12200 fluorescence intensity (a.u.). As to “GCGATTTATCTCCTTTCTGTTTCCGAATTTTATTAGTAGTCGGAGTCACCTAGTGCAG”, the binding signal is 11500 fluorescence intensity (a.u.). The figure for “CCCATTAATATCCCGGCCTTTCACACACGGCGGCCCATGCCGGAGTCACCTAGTGCAG” is 8160 fluorescence intensity (a.u.); for “ATGGTCTTGGTTTTGGGCGGCACGGTGGCACCTTTGTGCCCGGAGTCACCTAGTGCAG” it is 8520 fluorescence intensity (a.u.); for “TCGTTTCTTTGCCAGCTGCGCATCCATTCAGCCGGTCGTACGGAGTCACCTAGTGCAG” it is 12700 fluorescence intensity (a.u.).

Regarding “TCGTTTCGTTTTTTCCTTTTTTTGATCCATCTTGCTGCTACGGAGTCACCTAGTGCAG”, the binding signal was 8280 fluorescence intensity (a.u.). For “GCCTAGATCCGCATTAAACTAGTCTATCTCCAGCAATTTACGGAGTCACCTAGTGCAG”, the binding signal is 9240 fluorescence intensity (a.u.). Turning to “ATCCTTTGGATTCTTTTCTTGATCGTTTCTATTCCTAATTCGGAGTCACCTAGTGCAG”, the binding signal was 9310 fluorescence intensity (a.u.).

As to “TCTTCCCCGCGTTATCAAAGATTTCAATCTCTATAGGTTCCGGAGTCACCTAGTGCAG”, the binding signal was 8700 fluorescence intensity (a.u.). In the case of “AATCCGCTCAGTTTGTACTACGTATTATTATTCATTCTTCCGGAGTCACCTAGTGCAG” it was 12800 fluorescence intensity (a.u.). In the case of “TCTGTTCCCGCAACAACCCTTATCTTTGGTTCCGCTTCGACGGAGTCACCTAGTGCAG” it was 8300 fluorescence intensity (a.u.).

Consider “GATTAATATGATTTTCTGCAGTAACTATTCTATAGAATTTCGGAGTCACCTAGTGCAG”, for which the binding signal is 9620 fluorescence intensity (a.u.). In the case of “TTTTGGTCCCCTTATCATCCACATCCAGTTGACCAGTCCCCGGAGTCACCTAGTGCAG” it was 11000 fluorescence intensity (a.u.); in that of “GCTAGTGGTGTACTGGTGGTCATTGTCATTTGTTTTTCACCGGAGTCACCTAGTGCAG”, 14700 fluorescence intensity (a.u.).
